Assay in all cases: EMSA
(In general: In EMSA bound probe runs differently from free probe, usually more slowly.)

Data set [1] relates to T1, GLI1ΔN del1-128 (Homo sapiens).
T1 sequence (looked up): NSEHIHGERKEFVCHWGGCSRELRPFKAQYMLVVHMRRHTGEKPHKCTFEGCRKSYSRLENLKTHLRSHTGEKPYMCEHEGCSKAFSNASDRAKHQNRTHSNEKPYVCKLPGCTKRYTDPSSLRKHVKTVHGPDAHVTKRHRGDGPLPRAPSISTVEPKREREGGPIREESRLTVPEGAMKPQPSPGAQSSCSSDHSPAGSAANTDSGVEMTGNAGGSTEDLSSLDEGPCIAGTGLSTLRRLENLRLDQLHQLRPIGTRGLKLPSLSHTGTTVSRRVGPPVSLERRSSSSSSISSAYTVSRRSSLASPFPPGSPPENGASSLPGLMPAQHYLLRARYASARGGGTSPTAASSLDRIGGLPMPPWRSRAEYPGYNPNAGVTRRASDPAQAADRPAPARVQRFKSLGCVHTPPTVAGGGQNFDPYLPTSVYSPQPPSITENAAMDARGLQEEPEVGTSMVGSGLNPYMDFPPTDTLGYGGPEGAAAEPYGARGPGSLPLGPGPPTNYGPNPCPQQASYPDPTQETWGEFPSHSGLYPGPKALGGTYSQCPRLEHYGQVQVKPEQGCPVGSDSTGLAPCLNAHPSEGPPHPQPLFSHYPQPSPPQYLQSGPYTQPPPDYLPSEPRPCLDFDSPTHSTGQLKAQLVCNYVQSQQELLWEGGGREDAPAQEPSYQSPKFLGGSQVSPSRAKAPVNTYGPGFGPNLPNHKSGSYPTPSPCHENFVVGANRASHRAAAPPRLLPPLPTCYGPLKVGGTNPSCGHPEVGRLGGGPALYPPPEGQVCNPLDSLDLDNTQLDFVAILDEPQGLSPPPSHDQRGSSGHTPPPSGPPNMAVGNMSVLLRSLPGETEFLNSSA
The settings on record: U2OS nuclear extract; EMSA as previously described (ref 19); protein in an extract; residues 1-978; protein details: Flag; label: 32P (T4 polynucleotide kinase).

Data set [2] concerns the target GLI1FL (GLI1 isoform 1) (Homo sapiens) (UniProt P08151). The settings on record: U2OS nuclear extract; EMSA as previously described (ref 19); protein in an extract; residues 1-1106; protein details: Flag; label: 32P (T4 polynucleotide kinase).
Data set [3] concerns the target T2, OCT1 (UniProt P14859).
T2 sequence (looked up, limits assumed): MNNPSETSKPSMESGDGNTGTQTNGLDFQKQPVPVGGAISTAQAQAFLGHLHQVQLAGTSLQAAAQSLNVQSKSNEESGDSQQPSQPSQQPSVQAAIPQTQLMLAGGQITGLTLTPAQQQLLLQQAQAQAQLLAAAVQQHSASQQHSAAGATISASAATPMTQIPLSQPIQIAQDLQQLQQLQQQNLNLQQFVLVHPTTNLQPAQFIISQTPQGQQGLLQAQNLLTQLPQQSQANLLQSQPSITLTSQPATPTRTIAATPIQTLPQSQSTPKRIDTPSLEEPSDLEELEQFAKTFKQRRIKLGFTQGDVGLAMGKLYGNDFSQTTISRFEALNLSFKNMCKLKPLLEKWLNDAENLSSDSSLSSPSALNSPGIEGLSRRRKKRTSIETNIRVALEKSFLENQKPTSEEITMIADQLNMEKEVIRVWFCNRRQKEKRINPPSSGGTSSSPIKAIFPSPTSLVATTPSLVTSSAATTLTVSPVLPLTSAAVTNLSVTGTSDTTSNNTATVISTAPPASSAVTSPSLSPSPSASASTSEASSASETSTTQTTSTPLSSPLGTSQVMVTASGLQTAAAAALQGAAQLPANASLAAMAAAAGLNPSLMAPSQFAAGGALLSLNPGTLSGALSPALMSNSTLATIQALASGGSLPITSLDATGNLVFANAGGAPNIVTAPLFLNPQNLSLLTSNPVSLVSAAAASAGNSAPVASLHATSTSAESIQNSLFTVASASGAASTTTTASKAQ
The settings on record: U2OS nuclear extract, quality control; EMSA as previously described (ref 19); protein in an extract; label: 32P (T4 polynucleotide kinase).

The exact form of at least one protein or probe is not confirmed. At least one result comes from cells or an extract, where the contact may be indirect. For part of these data: Protein sequences can lack the tags named with them.

Regarding “AGCTACCTGGGTGGTCTCTTCGA (double strand) [GLIRE]”, the binding result in data set [1] and in data set [2] was “binds” in each case.

For the sequence “GAGAGGAATTTGCATTTCCACCGACCTTCC (double strand) [POURE]”, in data set [3], the binding result is given as “binds”.

These data come from PMC6879148.
